According to publication PMC3489787, “Characterization of EssB, a protein required for secretion of ESAT-6 like proteins in Staphylococcus aureus” (BMC Microbiology, 2012):
No constants are given. Whether binding was seen depends on the method and setting. Some binding calls cover weakened binding; strength is not graded here. Each block holds one substance with its values, some of them ahead of it.

The chains behind the UniProt entries cited, without tags or fusion partners. Where a name states a change or a piece, a line headed by the entry shows the natural chain unless it says otherwise.
UniProt Q2G185: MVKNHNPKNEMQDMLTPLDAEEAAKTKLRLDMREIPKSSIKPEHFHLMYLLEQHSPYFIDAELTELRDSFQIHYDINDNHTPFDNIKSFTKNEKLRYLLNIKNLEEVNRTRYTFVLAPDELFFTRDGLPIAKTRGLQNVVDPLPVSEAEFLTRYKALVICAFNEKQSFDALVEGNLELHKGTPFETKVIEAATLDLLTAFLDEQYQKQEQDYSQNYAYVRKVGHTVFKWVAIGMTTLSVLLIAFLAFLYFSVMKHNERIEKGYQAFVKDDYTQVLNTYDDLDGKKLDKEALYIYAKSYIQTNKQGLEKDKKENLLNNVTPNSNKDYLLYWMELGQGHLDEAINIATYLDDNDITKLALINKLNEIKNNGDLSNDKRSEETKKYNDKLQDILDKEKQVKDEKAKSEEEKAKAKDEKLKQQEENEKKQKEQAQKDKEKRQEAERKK

How the values were obtained:
[1] = molecular target: EssB (full length, recombinant) (Staphylococcus aureus) (UniProt Q2G185); assay: SEC; about 100 ug of each purified protein, tags removed, on Superdex 75 10/300 GL in 50 mM Tris-HCl pH 8.0, 150 mM NaCl, 1 mM DTT at 4 °C, 0.5 ml/min; fractions on Coomassie-stained SDS-PAGE; calibrated with aldolase 158, conalbumin 75, ovalbumin 43, myoglobin 17 kDa (the results name a Sephacryl S-200 column); both purified
[2] = molecular target: EssB (full length, recombinant) (Staphylococcus aureus) (UniProt Q2G185); assay: SEC; gel filtration of EssB with the protein concentration increased or decreased by a factor of 10; data not shown; both purified
[3] = molecular target: EssB^N (Staphylococcus aureus) (UniProt Q2G185); assay: SEC; about 100 ug of each purified protein, tags removed, on Superdex 75 10/300 GL in 50 mM Tris-HCl pH 8.0, 150 mM NaCl, 1 mM DTT at 4 °C, 0.5 ml/min; fractions on Coomassie-stained SDS-PAGE; calibrated with aldolase 158, conalbumin 75, ovalbumin 43, myoglobin 17 kDa (the results name a Sephacryl S-200 column); both purified
[4] = molecular target: EssB^C (Staphylococcus aureus) (UniProt Q2G185); assay: as above

Substance: EssB (full length, recombinant) (from UniProt Q2G185 1-444)
binding [1]: binds
binding [2]: binds

binding [3]: no binding
Substance: EssB^N (from UniProt Q2G185 1-223) (domain or fragment)

binding [4]: no binding
Substance: EssB^C (from UniProt Q2G185 253-444) (domain or fragment)
